The text below walks through data of PMC11088181.

Sequences of proteins named here, by UniProt entry; tags and fusion partners are left off. Residues count along the entry.
Aβ1-42 (P05067, residues 672-713): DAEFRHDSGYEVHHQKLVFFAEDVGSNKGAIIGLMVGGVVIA
Aβ1-40 (P05067, residues 672-711): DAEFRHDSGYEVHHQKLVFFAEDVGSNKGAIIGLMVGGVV

These are yes or no findings as the source states them, for the method shown. Some binding calls cover weakened binding; strength is not graded here.

One assay has as its target Aβ1-40 (UniProt P05067). The experiment in a line: ELISA; plates coated with 4 ng/μL Aβ peptide for 16 h at 4 °C, blocked with 5% BSA; recombinant cystatin F dimer added for 3 h at 18.75-300 ng/mL; detected with cystatin F antibody, absorbance at 450 nm; both purified.
In another assay the target is Aβ1-42 (UniProt P05067). The assay is described as above.
For assay [1], the target named is cystatin F in human plasma (human (endogenous in plasma)) (UniProt O76096). The experiment in a line: condition: only with DTT (loading buffer with 20% DTT, boiled at 95 °C for 10 min); native gel or EMSA; same gel and western blot, loading buffer with 20% DTT, samples boiled at 95 °C for 10 min. On the technique in general: A gel shift assay detects complexes by their altered migration in electrophoresis.

B1: recombinant cystatin F dimer protein (protein, UniProt O76096 20-145)
chain: GPSPDTCSQDLNSRVKPGFPKTIKTNDPGVLQAARYSVEKFNNCTNDMFLFKESRITRALVQIVKGLKYMLEVEIGRTTCKKNQHLRLDDCDFQTNHTLKQTLSCYSEVWVVPWLQHFEVPVLRCH
As to B1, the binding entry in the assay with Aβ1-40 and in the assay with Aβ1-42 was “binds” in each case.

B2: cystatin F in human plasma (protein, UniProt O76096 20-145)
chain: B1 chain
B2: in assay [1], the binding entry was “no binding”.
